Measured values from the supplement of paper PMC10338343.
± gives the standard deviation. The entries are a selection whose mix differs from that of the whole data set. The uncertainty is large for many entries.

tested on: MIWI (PIWIL1) piRISC loaded with piRNA #2 (30 nt); assay: pre-steady-state target cleavage rate (min^-1); MIWI and MILI are mouse PIWI proteins and EfPiwi is from a freshwater sponge; tags in brackets are library labels; higher = faster piRNA-guided slicing of the target; settings: guide: piRNA #2 5'p-UUAGGUAACCCAGUAGAUCCAGAGGAAUUC; auxiliary factor: 500 nM mouse GTSF1
Method: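 Cleave-'n-Seq: a library of target RNAs (target site embedded in constant flanks, ACAGCATTCCGCGTTAGTGATATCCG... 5' flank; DNA-blocked outside the site) at 0.1 nM was incubated with 1 nM active mouse MILI or MIWI piRISC (synthetic 5'-monophosphorylated piRNA guide) with or without 500 nM mouse GTSF1 at 33 °C for 1 min to 16 h. Uncleaved targets were sequenced and normalised to non-target controls, and the pooled three trials were fitted to a burst-and-steady-state model to give the pre-steady-state cleavage rate (min^-1; k3 is constrained to at most 1e-4). Sequence is the target site only; target names encode pairing extent (gX:gY) and contiguous / 1-mismatch / 2-mismatch / bulge geometry. Fits with R² ≤ 0 are excluded.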

Sequence | pre-steady-state target cleavage rate
CUUAAGGAGACCUAGACCUGGGUUACCUAA | 0.000645 ± 0.0097
CUAUUCCUCUGGAUCUACUGGGUUAACUAA | 0.349 ± 0.071
CUUAAGGAGUGGAUCUUCUCGGUUACCUAA | 0.000948 ± 0.012
CUUAAGGAGACCUACUACUGGGUUACCAA | 0.00201 ± 0.0034
CUUAAGGAGAGGAUCUACUGGGGUACCUAA | 0.00225 ± 0.0056
CUUAAGGAGUCGAUCUACUGCGUUACCUAA | 0.000666 ± 0.014
CUUAAGGACUGCAUCUAGUGGGUUACCUAA | 0.00102 ± 0.021
CUUAAGGAGAGGAAGUACUGGGUUACCUAA | 0.000368 ± 0.024
CUUAAGGAGAGGUUCUACUGGGUUACCAAA | 0.00205 ± 0.0036
CUUAUCCUCUGGAUACUACUGGGUUACCUAA | 0.419 ± 0.059
CUUAAGGAGAGGAUCAACUGGGUUACCAAA | 0.00031 ± 0.017
CUUAAGGACUGGACUACUGGGUUACCUAA | 0.00281 ± 0.013
CUUAAGGAGACCUUCUACUGGGCUACCUAA | 0.00139 ± 0.0086
CUUAAGGAGUGGAUCUACUGGGUAACCAAA | 0.000256 ± 0.021
CUUAAGGAGACCUACUACUGGCUUACGUAA | 0.00155 ± 0.007
CUUAAGGAGACCUACUACUGGGUUAGCUAA | 0.00141 ± 0.0043
CUUAAGGAGUGGAUCUACUCGCUUACCUAA | 0.000421 ± 0.025
CUUAAGGAGACCUAGUAGCUGGGUUACCUAA | 0.000957 ± 0.0081
CUUAAGGAGACCAUCUACUGGCAAACCUAA | 0.000112 ± 0.032
CUUAAGGAGACCUAGUACUGGGUUACACUAA | 0.000699 ± 0.011
CUUAAGGAGACCUACUACUGGGUUACCUAAA | 0.00284 ± 0.0042
CUUAAGGAGACCUAGUACUGGGAUUACCUAA | 0.000773 ± 0.0084
CUUAAGGAGACCUUUUACUGGGUUACCUAA | 0.00255 ± 0.0046
CUUAAGGAGACGAUCUAUCUGGGUUACCUAA | 0.000993 ± 0.012

Sequence | pre-steady-state target cleavage rate
CUUAAGGAGACGAACUACUGGGUUUCCUAA | 0.000951 ± 0.0059
CUUAAGGAGUGGAUCUACUGGGUUUCCUUA | 0.00259 ± 0.0031
CUUAAGCUCUGGAUCUACUGGGUUACCUCAA | 0.0988 ± 0.015
CUUAAGGAGACGAUCUACUGGGUUACCCUAA | 0.00138 ± 0.0032
CUUAAGGAGUGGAUCUACUCCGUUACCUAA | 0.00175 ± 0.0093
CUUAAGGAGAGGAUCUUACUGGGUUACCUAA | 0.000254 ± 0.019
CUAUUCGUCUGGAUCUACUGGGUUACCAAA | 0.36 ± 0.064
CUUAAGGAGACCAUCAACUGGGUUACGUAA | 0.000146 ± 0.03
CUUAAGGAGACCUAGAUCUGGGUUAGCUAA | 0.000569 ± 0.0097
CUUAAGGAGACCAUCUAGUGGGUUAGCUAA | 0.000641 ± 0.016
CUUAAGGAGUGGAACUACUGGGUUUCCUAA | 0.000655 ± 0.017
CUAUUCCUCUGGUUCUACUGGGUUACCUUA | 0.371 ± 0.057
CUUAAGGAGACCUACUACUGGCAUACCUAA | 0.000715 ± 0.007
CUUAAGGAGACGAUCUACGGGUUACCUAA | 0.00144 ± 0.0086
GAAUUGCUCAGGAUCUACUGGGUUACCUAA | 0.168 ± 0.037
CUUAAGGAGACCUUCUACUCGGUUACCAAA | 0.000734 ± 0.0098
CUUAAGGACUGCAUCUACUGGGAUACCUAA | 0.000558 ± 0.033
CUAUUCCUCUGGAAGUACUGGGUUACCUAA | 0.631 ± 0.046
CAAUUCCUCUUGGAUCUACUGGGUUACCUAA | 0.358 ± 0.046
GAAUUCCUCUGGUUCUACUGGGUUUCCUAA | 0.923 ± 0.3
CUUAAGGAGACCUAGUACUGGGUUACCUAAA | 0.000845 ± 0.0085
CUUAAGGAGACCUUCUACUGGGUUACCUGA | 0.000964 ± 0.0086
CUUAAGGACUGGAUCUACUCGGUUACCUUA | 0.013 ± 0.018
CUUAAGGACUGGAUCUUCUCGGUUACCUAA | 0.00636 ± 0.01

Retrieved one by one from the list above (2):
Sequence | pre-steady-state target cleavage rate
CUUAAGGACUGCAUCUACUGGGAUACCUAA | 0.000558 ± 0.033
CUUAAGGAGACCUUCUACUCGGUUACCAAA | 0.000734 ± 0.0098

Rewritten tab-delimited: part of the list above
Sequence	pre-steady-state target cleavage rate
CUUAAGGAGACGAUCUACUGGGUUACCCUAA	0.00138 ± 0.0032
CAAUUCCUCUUGGAUCUACUGGGUUACCUAA	0.358 ± 0.046

Later entries.

Sequence | pre-steady-state target cleavage rate
CUUAAGGAGACCAUCUACUGGGUUACUAA | 0.000889 ± 0.0069
CUUAAGGAGACCUAGAUGAGGGUUACGUAA | 0.000924 ± 0.0066
GAAUUCCUCUGGAUCUACUGGAGUUACCUAA | 0.00576 ± 0.0035
CUUAAGGAGACGAUCUACUGGCUUACCUAA | 0.000737 ± 0.015
CUUUUCCUCUCCAUCUACUGGGUUACCUAA | 0.554 ± 0.044
CUUAAGGAGACCAUCUACUGGGUAACCUAA | 0.000893 ± 0.0039
CUUAAGGACUGGAUGUACUGGGAUACCUAA | 0.016 ± 0.019
CUUAAGGAGACCUAGUACAGGGUUACGUAA | 0.000683 ± 0.01
CUUAAGGAGACCUACUACUGGGUUACGCUAA | 0.0018 ± 0.0053
CUUUUCCUCUGGAUCUACUGCCAAUGGAUA [g11:g27:cont:t1A] | 0.000115 ± 0.027
CUUAAGGAGACCUAGAUGACGAGUUACCUAA | 0.000205 ± 0.016
CUUAAGGAGACCUACUACUGGGUUACCUAU [g2:g16:cont:t1U] | 0.00178 ± 0.007
CUUAUCCUCUGGAUCUACUGGUUACCUAA | 0.0947 ± 0.024
CAAUUCCUCUGGAUCUACUGGGUUAGGAUA [g6:g29:cont:t1A] | 0.00199 ± 0.0063
CUUAAGGAGACCAUCUACUCCCUUACCUAA | 0.000407 ± 0.021
CUUAAGGAGACGAUCUACUGGGUUACCAUAA | 0.0011 ± 0.0067
CUUAAGGAGACGAGUCUACUGGGUUACCUAA | 0.000928 ± 0.0081
CAAUUCCUCUGGGUCUACUGGGUUACCUAA | 0.562 ± 0.037
CUUUUCCUCUGGAUCAACUGGGUUUCCUAA | 0.165 ± 0.034
CUUAAGGAGACGAUCUACUGGCUUACCAAA | 0.000193 ± 0.029
CUUAAGGAGACCAUCUUCUGGCUUACCUAA | 0.00117 ± 0.0045
CUUAAGGACUGGAUCUACUCGGUUUCCUAA | 0.00176 ± 0.016
CUUAAGGUCUGCUACUACUGGGUUACCUAA | 0.00486 ± 0.0087
